Experimental data: US5932217A, “Peptides which inhibit adhesion between leukocytes and endothelial cells” (priority 1994, dated 1999)
Not every detail of the peptide structures is certain; ends, links or a residue may be inferred. Where no end group is shown, it is not given here.

Experiments:
THP-1 cells = assay: Generation of Factor Xa by monocytes; assay type: cell-based; settings: peptides 0.5 mM; for Factor Xa: from standard curve; for reduction of Factor Xa production: versus scrambled FHA II peptide
Description: Factor Xa generation was determined by a modification of the method of Miletich et al. (1978), J. Biol. Chem. 253: 6908-6916. THP-1 cells (ATCC; 3×10^7 /ml) resuspended in RPMI 1640 (Bio Whittaker, Walkersville, Md.) were incubated with 100 μM ADP (Sigma), 2.5 mM CaCl2, 1 or 5 μg/ml Factor X (Hematologic Technologies Inc.) and 0.5 mM peptides at room temperature. After 20 minutes, 100 μl of the reaction mixture was transferred to 37° C. and supplemented with 100 μl of bovine factor VII- and Factor X-deficient plasma (Sigma). Coagulation was initiated by adding 100 μl of 25 mM CaCl2 and the clotting time was determined. Factor Xa procoagulant activity (ng/ml) was calculated by means of a standard curve constructed by serial concentrations of Factor Xa (Hematologic Technologies Inc.) from 50 to 250 ng/ml.

[1] = tested on: rabbits challenged intracisternally with pneumococcus strain R6; assay: Rabbit model for meningitis, intravenous FHA or peptides; assay type: in vivo; settings: 7 hours; FHA 0.1 μM, peptides 10 μM
Description: The rabbit model was performed according to an established protocol. Specific pathogen free, New Zealand white rabbits (2 kg; Hare Marland, Nutley, N.J.) were anesthetized with valium (2.5 mg/kg, subcutaneously, Hoffman-LaRoche, Nutley, N.J.), ketamine (35 mg/kg, intramuscularly, Aveco, Fort Dodge, Iowa) and xylazine (5 mg/kg, intramuscularly, Miles Laboratories, Shawnee, Kans.) and a helmet of dental acrylic was affixed to the calvarium. Twenty four hours later, the rabbits were anesthetized with ethyl carbamate (1.75 g/kg; Aldrich Chemical Co., Milwaukee, Wis.) and pentobarbital (15 mg/kg; Abbott Laboratories, Abbott Park, Ill.) and placed in a stereotaxic frame. A spinal needle was introduced into the cisterna magna and 300 μl of CSF was withdrawn. The animals were challenged intracisternally with 10^8 heat killed, unencapsulated pneumococcus strain R6 introduced in 200 μl of saline (time 0). […] Samples of CSF were withdrawn at hourly intervals after pneumococcal inoculation and leukocyte density was measured using a cell counter (Coulter Electronics Inc., Hialeah, Fla.). […] Statistically significant differences between treatments were determined by a one way analysis of variance test.
The anti-inflammatory effects of the administered peptides were assessed in the rabbit model for meningitis by the procedures described in Example 10. […]

Sequence	Clotting time (THP-1 cells) [s]	Factor Xa (THP-1 cells) [ng/mL]	reduction of Factor Xa production (THP-1 cells)	reduction of CSF leukocytosis [1] [%]
GLYQAKRFKVG [Factor X I, reference compound]	37.0 ± 4.0	37.8	substantial reduction that did not reach statistical significance	–
GYDTKQEDG [Factor X II, reference compound]	55.2 ± 4.0	< 10	> 90%	> 60
IDRSMKTRG [Factor X III, reference compound]	26.5 ± 2.4	107.5	substantial reduction that did not reach statistical significance	–
